The source of these data is US20040086510A1.

Results are given in words; binding and its absence hold for the method and conditions named. Some results given as binding are weak or reduced against the parent protein; the word gives no strength. Sequences can lack the tags named with a protein.

Assay [1] has as its target IRAP (55-82) bait: GAL4-DNA binding domain (GAL4-BD) fused to the polypeptide of amino acid residues 55 to 82 of insulin responsive aminopeptidase (IRAP), from pBAIT-2 (UniProt P04386). In words: yeast two-hybrid, beta-galactosidase activity.
For assay [2] the target is unchanged. The experiment in a line: yeast two-hybrid, HIS3 reporter growth test.

B1: MD25 prey: GAL4 transcription-activating domain (GAL4-AD) fused to the part of human very-long chain acyl-CoA dehydrogenase (VLCAD) downstream from the 36th … (protein, not shown: large carriers)
chain: ARRPYAGGAAQLALDKSDSHPSDALTRKKPAKAESKSFAVGMFKGQLTTDQVFPYPSVLNEEQTQFLKELVEPVSRFFEEVNDPAKNDALEMVEETTWQGLKELGAFGLQVPSELGGVGLCNTQYARLVEIVGMHDLGVGITLGAHQSIGFKGILLFGTKAQKEKYLPKLASGETVAAFCLTEPSSGSDAASIRTSAVPSPCGKYYTLNGSKLWISNGGLADIFTVFAKTPVTDPATGAVKEKITAFVVERGFGGITHGPPEKKMGIKASNTAEVFFDGVRVPSENVLGEVGSGFKVAMHILNNGRFGMAAALAGTMRGIIAKAVDHATNRTQFGEKIHNFGLIQEKLARMVMLQYVTESMAYMVSANMDQGATDFQIEAAISKIFGSEAAWKVTDECIQIMGGMGFMKEPGVERVLRDLRIFRIFEGTNDILRLFVALQGCMDKGKELSGLGSALKNPFGNAGLLLGEAGKQLRRRAGLGSGLSLSGLVHPELSRSGELAVRALEQFATVVEAKLIKHKKGIVNEQFLLQRLADGAIDLYAMVVVLSRASRSLSEGHPTAQHEKMLCDTWCIEAAARIREGMAALQSDPWQQELYRNFKSISKALVERGGVVTSNPLGF
Turning to B1, the binding entry in assay [1] and in assay [2] was “binds” in each case.
